Measured values reported in publication PMC10808971.

Protein sequences, listed by entry. Tags and fused reporters are not part of them. Lines headed by an entry give the natural chain unless they say otherwise; changes in a name come on top.
UniProt Q14145: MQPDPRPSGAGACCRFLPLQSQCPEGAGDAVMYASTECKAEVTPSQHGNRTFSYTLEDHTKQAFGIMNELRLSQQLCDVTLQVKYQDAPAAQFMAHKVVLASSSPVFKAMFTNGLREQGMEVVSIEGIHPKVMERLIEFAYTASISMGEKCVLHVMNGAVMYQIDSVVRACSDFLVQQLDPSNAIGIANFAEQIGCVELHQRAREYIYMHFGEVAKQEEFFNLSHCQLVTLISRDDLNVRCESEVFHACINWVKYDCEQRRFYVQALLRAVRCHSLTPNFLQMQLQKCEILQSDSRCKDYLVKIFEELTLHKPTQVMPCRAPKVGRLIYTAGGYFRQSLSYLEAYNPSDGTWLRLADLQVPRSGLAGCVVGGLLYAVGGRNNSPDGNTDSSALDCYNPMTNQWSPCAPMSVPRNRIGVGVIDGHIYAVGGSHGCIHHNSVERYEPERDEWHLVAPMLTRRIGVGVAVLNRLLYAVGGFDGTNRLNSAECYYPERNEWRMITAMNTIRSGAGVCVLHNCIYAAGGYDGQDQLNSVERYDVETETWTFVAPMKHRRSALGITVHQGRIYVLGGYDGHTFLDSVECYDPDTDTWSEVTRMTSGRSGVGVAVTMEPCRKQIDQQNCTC
UniProt Q9H2G2: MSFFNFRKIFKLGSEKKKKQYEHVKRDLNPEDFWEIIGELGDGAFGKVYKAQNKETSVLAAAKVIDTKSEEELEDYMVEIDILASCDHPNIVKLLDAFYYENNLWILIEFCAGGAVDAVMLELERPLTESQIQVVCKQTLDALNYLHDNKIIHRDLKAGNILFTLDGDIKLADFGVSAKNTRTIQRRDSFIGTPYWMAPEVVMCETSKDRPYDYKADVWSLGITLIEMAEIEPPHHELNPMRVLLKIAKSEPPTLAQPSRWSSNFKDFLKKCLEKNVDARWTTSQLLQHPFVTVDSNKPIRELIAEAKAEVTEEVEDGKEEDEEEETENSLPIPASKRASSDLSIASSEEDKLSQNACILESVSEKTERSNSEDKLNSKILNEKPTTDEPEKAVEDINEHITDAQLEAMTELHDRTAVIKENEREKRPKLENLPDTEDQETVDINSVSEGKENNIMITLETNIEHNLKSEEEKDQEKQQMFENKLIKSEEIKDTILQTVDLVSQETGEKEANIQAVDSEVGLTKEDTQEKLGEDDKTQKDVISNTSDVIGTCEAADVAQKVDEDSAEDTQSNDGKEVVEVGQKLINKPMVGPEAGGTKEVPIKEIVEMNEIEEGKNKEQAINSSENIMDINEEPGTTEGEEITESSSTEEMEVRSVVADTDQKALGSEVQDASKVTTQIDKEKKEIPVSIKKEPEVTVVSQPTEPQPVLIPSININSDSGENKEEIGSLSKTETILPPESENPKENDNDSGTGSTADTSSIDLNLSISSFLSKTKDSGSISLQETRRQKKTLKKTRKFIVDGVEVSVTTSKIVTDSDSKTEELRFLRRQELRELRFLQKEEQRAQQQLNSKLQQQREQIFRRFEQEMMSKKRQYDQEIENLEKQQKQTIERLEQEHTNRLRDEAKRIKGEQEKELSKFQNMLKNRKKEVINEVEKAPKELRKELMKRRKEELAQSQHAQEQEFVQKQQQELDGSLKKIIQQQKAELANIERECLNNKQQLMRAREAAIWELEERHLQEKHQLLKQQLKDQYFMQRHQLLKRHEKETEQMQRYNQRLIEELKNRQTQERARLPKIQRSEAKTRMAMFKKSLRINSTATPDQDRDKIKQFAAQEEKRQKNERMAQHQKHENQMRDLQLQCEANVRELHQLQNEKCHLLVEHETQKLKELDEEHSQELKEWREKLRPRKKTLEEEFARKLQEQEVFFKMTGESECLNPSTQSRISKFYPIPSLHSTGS
UniProt Q8IXI2: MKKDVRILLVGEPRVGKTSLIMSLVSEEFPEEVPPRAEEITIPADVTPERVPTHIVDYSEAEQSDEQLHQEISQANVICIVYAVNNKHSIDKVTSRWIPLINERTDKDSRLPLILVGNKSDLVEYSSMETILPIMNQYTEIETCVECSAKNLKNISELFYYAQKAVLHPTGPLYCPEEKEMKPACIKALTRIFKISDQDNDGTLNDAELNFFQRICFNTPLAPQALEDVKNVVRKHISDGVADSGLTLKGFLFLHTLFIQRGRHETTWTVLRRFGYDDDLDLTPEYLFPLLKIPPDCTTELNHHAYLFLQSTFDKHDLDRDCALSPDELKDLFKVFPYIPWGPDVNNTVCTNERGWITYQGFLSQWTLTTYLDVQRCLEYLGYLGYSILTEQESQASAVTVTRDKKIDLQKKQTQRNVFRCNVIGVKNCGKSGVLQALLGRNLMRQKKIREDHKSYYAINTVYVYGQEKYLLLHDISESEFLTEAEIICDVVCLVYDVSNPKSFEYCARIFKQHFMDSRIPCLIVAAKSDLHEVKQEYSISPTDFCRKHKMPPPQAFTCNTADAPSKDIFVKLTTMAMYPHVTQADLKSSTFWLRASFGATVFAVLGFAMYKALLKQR

Assays:
Experiment in all cases: affinity purification with mass spectrometry; HA-Strep-KEAP1 (wt, R320Q, R470C) captured on Strep-Tactin sepharose from lysates of doxycycline-induced TREx-Hek-293T cells (50 mM Hepes pH 8.0, 5 mM EDTA, 150 mM NaCl, 50 mM NaF, 0.5 % IGEPAL), eluted with biotin, LC-MS/MS, SAINTexpress; GFP cells as mock
[1] = target: HA- and Strep-tagged KEAP1 R320Q (human) (UniProt Q14145)
[2] = target: HA- and Strep-tagged KEAP1 R470C (human) (UniProt Q14145)
[3] = target: HA- and Strep-tagged KEAP1 wild type (Kelch-like ECH-associated protein 1) (human) (UniProt Q14145)

Molecule	binding [1]	binding [2]	binding [3]
STE20 like kinase (SLK), endogenous in TREx-Hek-293T (from UniProt Q9H2G2 1-1235)	binds	binds	binds
Ras homolog family member T1 (RHOT1), endogenous in TREx-Hek-293T (from UniProt Q8IXI2 1-618)	binds	binds	–
Baculoviral IAP repeat-containing protein 6 (BIRC6), endogenous in TREx-Hek-293T (from UniProt Q9NR09 1-4857)	binds	binds	–
Dipeptidyl peptidase 3 (DPP3), endogenous in TREx-Hek-293T (protein, UniProt Q9NY33 1-737) MADTQYILPNDIGVSSLDCREAFRLLSPTERLYAYHLSRAAWYGGLAVLLQTSPEAPYIYALLSRLFRAQDPDQLRQHALAEGLTEEEYQAFLVYAAGVYSNMGNYKSFGDTKFVPNLPKEKLERVILGSEAAQQHPEEVRGLWQTCGELMFSLEPRLRHLGLGKEGITTYFSGNCTMEDAKLAQDFLDSQNLSAYNTRLFKEVDGEGKPYYEVRLASVLGSEPSLDSEVTSKLKSYEFRGSPFQVTRGDYAPILQKVVEQLEKAKAYAANSHQGQMLAQYIESFTQGSIEAHKRGSRFWIQDKGPIVESYIGFIESYRDPFGSRGEFEGFVAVVNKAMSAKFERLVASAEQLLKELPWPPTFEKDKFLTPDFTSLDVLTFAGSGIPAGINIPNYDDLRQTEGFKNVSLGNVLAVAYATQREKLTFLEEDDKDLYILWKGPSFDVQVGLHELLGHGSGKLFVQDEKGAFNFDQETVINPETGEQIQSWYRSGETWDSKFSTIASSYEECRAESVGLYLCLHPQVLEIFGFEGADAEDVIYVNWLNMVRAGLLALEFYTPEAFNWRQAHMQARFVILRVLLEAGEGLVTITPTTGSDGRPDARVRLDRSKIRSVGKPALERFLRRLQVLKSTGDVAGGRALYEGYATVTDAPPECFLTLRDTVLLRKESRKLIVQPNTRLEGSDVQLLEYEASAAGLIRSFSERFPEDGPELEEILTQLATADARFWKGPSEAPSGQA	binds	binds	binds
MCC regulator of WNT signaling pathway (MCC), endogenous in TREx-Hek-293T (protein, UniProt P23508 1-829) MNSGVAMKYGNDSSAELSELHSAALASLKGDIVELNKRLQQTERERDLLEKKLAKAQCEQSHLMREHEDVQERTTLRYEERITELHSVIAELNKKIDRLQGTTIREEDEYSELRSELSQSQHEVNEDSRSMDQDQTSVSIPENQSTMVTADMDNCSDLNSELQRVLTGLENVVCGRKKSSCSLSVAEVDKHIEQLTTASEHCDLAIKTVEEIEGVLGRDLYPNLAEERSRWEKELAGLREENESLTAMLCSKEEELNRTKATMNAIREERDRLRRRVRELQTRLQSVQATGPSSPGRLTSTNRPINPSTGELSTSSSSNDIPIAKIAERVKLSKTRSESSSSDRPVLGSEISSIGVSSSVAEHLAHSLQDCSNIQEIFQTLYSHGSAISESKIREFEVETERLNSRIEHLKSQNDLLTITLEECKSNAERMSMLVGKYESNATALRLALQYSEQCIEAYELLLALAESEQSLILGQFRAAGVGSSPGDQSGDENITQMLKRAHDCRKTAENAAKALLMKLDGSCGGAFAVAGCSVQPWESLSSNSHTSTTSSTASSCDTEFTKEDEQRLKDYIQQLKNDRAAVKLTMLELESIHIDPLSYDVKPRGDSQRLDLENAVLMQELMAMKEEMAELKAQLYLLEKEKKALELKLSTREAQEQAYLVHIEHLKSEVEEQKEQRMRSLSSTSSGSKDKPGKECADAASPALSLAELRTTCSENELAAEFTNAIRREKKLKARVQELVSALERLTKSSEIRHQQSAEFVNDLKRANSNLVAAYEKAKKKHQNKLKKLESQMMAMVERHETQVRMLKQRIALLEEENSRPHTNETSL	binds	binds	–

No constants are given. Whether binding was seen depends on the method and setting. In cells and extracts the contact can be indirect. Here binding means that the protein was enriched with, or labelled near, the bait; the list need not be complete.
